Laboratory results reported in patent US20110223176A1.
These are yes or no findings as the source states them, for the method shown.

How the values were obtained:
[1] = molecular target: cynomolgus monkey BSG2 on the cell surface (cynomolgus monkey); assay: cell-based ECL (MSD) binding on whole cells expressing cynomolgus BSG2
[2] = molecular target: cynomolgus monkey BSG2 extracellular domain (cynomolgus monkey); assay: condition: antigen concentrations ranging from 1.23-900 nM; SPR (Biacore), mAb captured by anti-mouse Fc, BSG2 ECD injected
[3] = molecular target: cynomolgus monkey BSG2 on the cell surface (cynomolgus monkey); assay: flow cytometry (FACS) on BAF3 cells expressing cynomolgus BSG2
[4] = molecular target: cynomolgus monkey BSG2 on the cell surface (cynomolgus monkey); assay: receptor binding assay, Eu-labeled antibody on cells expressing cynomolgus BSG2

Measured: binding

B1: mouse anti-human BSG2 monoclonal antibody SZ66-2D2-2A1 (antibody, mouse IgG2a, kappa, V domains shown)
VH: QVQLQQPGAEIVRPGASVKLSCKASGYTFTDYWMNWVKLRPGQGLEWIGIIDPSDSYASYNQKFKGKATLTVDESSSTAYMQLSSLTSEDSAVYYCARKSYYGGNYYYAMDYWGQGTSVTVSS
VL: EIVLTQSPALMAASPGEKVTITCSVSSSINSINLHWYRQKSETSPKPWIYGTSNLASGVPVRFSGSGSGTSYSLTISSMEAEDAATYYCQQWSSYPLTFGAGTKLELKR
no binding: [1] | [2] | [3] | [4]
